According to patent US20110230407A1, “HEPATOCYTE GROWTH FACTOR PATHWAY ACTIVATORS IN DEMYELINATING DISEASES AND CENTRAL NERVOUS SYSTEM TRAUMA” (priority 2005, published 2011):
At least one compound was matched to its structure with a doubt left.

System: endothelial cells
Assay: Mimetic- and HGF/SF-induced endothelial cell proliferation with pathway inhibitors
Format: cell-based

With `COC[C@H]1OC(=O)c2coc3c2[C@@]1(C)C1=C(C3=O)[C@@H]2CCC(=O)[C@@]2(C)C[C@H]1OC(C)=O` [Wortmannin] the “effect on mimetic- and HGF/SF-induced endothelial cell proliferation” value was “prevented”.
